# Source: PubChem BioAssay AID602313 (National Center for Advancing Translational Sciences (NCATS), 2012)
# The whole screen tested about 390,000 compounds, of which about 760 (0.19%) were called active. Inconclusive results, whose numbers are uncertain, are shown with a selection of clear calls. Calls come from the whole dose curve; as a rule, active = well fitted inhibition curve with a large enough effect; inconclusive = small, poorly fitted or top-dose-only effect; inactive = flat fitted curve, though single readings scatter. Potencies beside an inconclusive call are fits to weak or partial responses and may not hold up.
# Experiment: qHTS for Inhibitors of Vif-A3F Interactions: qHTS; note: nearly all actives have a fitted effect of over 65% in size
# Settings: HeLa A3F-eYFP + Vif (tagged APOBEC3F with the HIV-1 protein that degrades it), YFP fluorescence increase; series mostly up to 46.1 µM
# Method in brief: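 HeLa cells stably expressing A3F-eYFP plus Vif, plated and incubated overnight at 37 deg C, then exposed to compounds overnight at 37 deg C. Blocked degradation read as raised yellow fluorescence (Ex 488/Em 500-530).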
# Potency is the fitted concentration of half-maximal effect.
row,Structure (SMILES),Potency
1,O=[N+]([O-])c1cc(C(F)(F)F)ccc1NCCc1ccncc1,"inconclusive: 11.2 µM [inhibitor, partial curve, poor fit]"
2,CCOc1ccc2nc(NC(=O)Cn3[nH]c(=O)c4ccccc4c3=O)sc2c1,"inconclusive: 35.5 µM [inhibitor, single point]"
3,COc1ccccc1NC(=O)C1=C(C)Nc2nc(SCc3ccccc3)nn2C1c1ccncc1 (centres undefined),"inconclusive: 25.1 µM [inhibitor, single point]"
4,Cn1c(-c2ccc(C=O)s2)nc2c3ccccc3c3ccccc3c21,"inconclusive: 3.98 µM [inhibitor, partial curve, poor fit]"
5,Cc1ccc(-c2csc(NC(=O)Cn3[nH]c(=O)c4ccccc4c3=O)n2)cc1,"inconclusive: 20 µM [inhibitor, partial curve, poor fit]"
6,OCCNc1c2ccccc2nc2c(F)c(F)c(F)c(F)c12,"inconclusive: 11.2 µM [inhibitor, partial curve, poor fit]"
7,CC(C)c1ccc(-n2c(-c3ccccc3)c[n+]3c2CCc2ccccc2-3)cc1,inactive
8,Cc1ccc(C)c(OCC(=O)NC2CCCCCC2)c1,inactive
9,O=C(Nc1cccc(-c2ccc(N3CCCCC3)nn2)c1)c1ccco1,"inconclusive: 2.82 µM [inhibitor, single point]"
10,Cc1ccc(/C(O)=C/c2nc3ccccc3oc2=O)cc1,"inconclusive: 6.31 µM [inhibitor, single point]"
11,Cc1nonc1NC(=O)CSc1nc2c(C)cccc2cc1C#N,active: 7.94 µM
12,COc1ccc(NC(=O)Nc2nnc(N(CC(C)C)CC(C)C)s2)c(OC)c1,"inconclusive: 15.8 µM [inhibitor, single point]"
13,CN(C(=O)COC(=O)c1ccc([N+](=O)[O-])cc1)c1ccccc1,inactive
14,COc1cccc(OC)c1C(=O)NC(=S)Nc1ccc(S(=O)(=O)Nc2nccs2)cc1,"inconclusive: 6.31 µM [inhibitor, single point]"
15,OCCC1CN(CCCn2cccn2)CCN1C1CCCCC1 (centres undefined),inactive
16,O=C(NCCO)N1c2ccccc2Sc2ccccc21,inactive
17,O=C(Nc1ccc([N+](=O)[O-])cc1)C(Cc1ccccc1)N1C(=O)c2cccc3cccc(c23)C1=O (centres undefined),"inconclusive: 4.47 µM [inhibitor, partial curve, poor fit]"
18,CCOC(=O)N1CCN(C(=O)CSC2=NS(=O)(=O)c3ccccc3N2)CC1,"inconclusive: 6.31 µM [inhibitor, single point]"
19,CCCCOc1ccc(NC(=O)C(=O)NCCCn2ccnc2)cc1,inactive
20,COc1ccc(-n2nc3c(N4CCCC(C(=O)NCCc5ccccc5C)C4)nnc(C)c3c2C)cc1 (centres undefined),active: 22.4 µM
21,Cc1cc(NC(=O)C2CCCN(S(=O)(=O)c3cccc4nsnc34)C2)ccc1Br (centres undefined),"inconclusive: 17.8 µM [inhibitor, single point]"
22,COc1ccc(N2C(=O)C3C(C2=O)C(C(=O)c2ccccc2)N2CCCC32)cc1 (centres undefined),"inconclusive: 11.2 µM [inhibitor, single point]"

# Fetched one by one from the entries so far:
row,Structure (SMILES),Potency
10,Cc1ccc(/C(O)=C/c2nc3ccccc3oc2=O)cc1,"inconclusive: 6.31 µM [inhibitor, single point]"
14,COc1cccc(OC)c1C(=O)NC(=S)Nc1ccc(S(=O)(=O)Nc2nccs2)cc1,"inconclusive: 6.31 µM [inhibitor, single point]"
6,OCCNc1c2ccccc2nc2c(F)c(F)c(F)c(F)c12,"inconclusive: 11.2 µM [inhibitor, partial curve, poor fit]"

# Continued.

row,Structure (SMILES),Potency
1,Cc1nc2c(ccc3nc(NC(=O)C(c4ccccc4)c4ccccc4)sc32)s1,"inconclusive: 6.31 µM [inhibitor, single point]"
2,CCOC(=O)c1ccccc1NC(=O)CSc1nc2ccccc2c(=O)n1CCCN1CCOCC1,"inconclusive: 22.4 µM [inhibitor, single point]"
3,COC(=O)c1sccc1-c1ccc(C(=O)Nc2ccccc2)o1,inactive
4,Cc1nc(N2CCC(C)CC2)c2c(C)c(C(=O)Nc3ccc(C(F)(F)F)cc3)sc2n1,inactive
5,Cn1c(N)c(-c2ccccc2)c2ccc([N+](=O)[O-])cc2c1=O,"inconclusive: 6.31 µM [inhibitor, partial curve, poor fit]"
6,CCOC(=O)c1c(NC(=O)COc2ccc3ccc(=O)oc3c2)sc(C(=O)N(C)C)c1C,"inconclusive: 35.5 µM [inhibitor, single point]"
7,O=C1N/C(=C/c2cccn2-c2ccccc2)C(=O)N1Cc1ccccc1F,"inconclusive: 7.94 µM [inhibitor, partial curve, poor fit]"
8,Cc1ccc2c(c1)cc(CN(Cc1ccco1)C(=O)N1CCOCC1)c1nnnn12,inactive
9,S=c1[nH]cnc2scc(-c3ccc(Cl)cc3)c12,"inconclusive: 3.55 µM [inhibitor, single point]"
10,O=C(Nc1cccnc1)Nc1ccc(Br)cc1Cl,inactive
11,COc1ccc(N(CC(=O)NC2CCCCC2)C(=O)CNC(=O)c2cccs2)cc1OC,"inconclusive: 35.5 µM [inhibitor, single point]"
12,c1cc[n+](CCC[n+]2ccccc2)cc1,inactive
13,CC/C(=N\NC(=S)Nc1ccc(OC)cc1)c1ccc(OC(F)F)cc1,inactive
14,CC(=O)Nc1ccc(S(=O)(=O)NCC2(N3CCOCC3)CCCCC2)cc1,"inconclusive: 35.5 µM [inhibitor, partial curve, poor fit]"
15,CCOc1cc(/C=C2\SC(N3CCCCC3)=NC2=O)ccc1O,"inconclusive: 35.5 µM [inhibitor, single point]"
16,CCCCCOc1ccc(NC(=O)c2cc(SC)ccc2Cl)cc1,inactive
17,COc1cc(CCC(=O)N2CCN(S(=O)(=O)c3ccc(C)cc3)CC2)cc(OC)c1OC,"inconclusive: 31.6 µM [inhibitor, partial curve, poor fit]"
18,C#Cc1cc(N2CCN(C(=O)c3ccoc3)CC2)n2nc(-c3cccc(Cl)c3)cc2n1,"inconclusive: 3.16 µM [inhibitor, partial curve, poor fit]"
19,O=C(C1=NN(c2ccccc2)C2C(=O)N(c3cccc(Cl)c3)C(=O)C12)c1ccccc1 (centres undefined),"inconclusive: 25.1 µM [inhibitor, single point]"
20,COc1cc(/C=C2/CC/C(=C/c3ccc(O)c(OC)c3)C2=O)ccc1O,"inconclusive: 25.1 µM [inhibitor, single point]"
21,Cc1cc(C)n2nc(SCC(=O)Nc3cc(Cl)ccc3C)nc2n1,inactive
22,S=c1[nH]nc(-c2ccc(Br)cc2)n1-c1ccc(Br)cc1,inactive
